{"sequences": {"note": "Sequences of proteins named here, by UniProt entry; tags and fusion partners are left off. A change or cut given only in a name is not applied to a line headed by its entry.", "UniProt Q86XL3": "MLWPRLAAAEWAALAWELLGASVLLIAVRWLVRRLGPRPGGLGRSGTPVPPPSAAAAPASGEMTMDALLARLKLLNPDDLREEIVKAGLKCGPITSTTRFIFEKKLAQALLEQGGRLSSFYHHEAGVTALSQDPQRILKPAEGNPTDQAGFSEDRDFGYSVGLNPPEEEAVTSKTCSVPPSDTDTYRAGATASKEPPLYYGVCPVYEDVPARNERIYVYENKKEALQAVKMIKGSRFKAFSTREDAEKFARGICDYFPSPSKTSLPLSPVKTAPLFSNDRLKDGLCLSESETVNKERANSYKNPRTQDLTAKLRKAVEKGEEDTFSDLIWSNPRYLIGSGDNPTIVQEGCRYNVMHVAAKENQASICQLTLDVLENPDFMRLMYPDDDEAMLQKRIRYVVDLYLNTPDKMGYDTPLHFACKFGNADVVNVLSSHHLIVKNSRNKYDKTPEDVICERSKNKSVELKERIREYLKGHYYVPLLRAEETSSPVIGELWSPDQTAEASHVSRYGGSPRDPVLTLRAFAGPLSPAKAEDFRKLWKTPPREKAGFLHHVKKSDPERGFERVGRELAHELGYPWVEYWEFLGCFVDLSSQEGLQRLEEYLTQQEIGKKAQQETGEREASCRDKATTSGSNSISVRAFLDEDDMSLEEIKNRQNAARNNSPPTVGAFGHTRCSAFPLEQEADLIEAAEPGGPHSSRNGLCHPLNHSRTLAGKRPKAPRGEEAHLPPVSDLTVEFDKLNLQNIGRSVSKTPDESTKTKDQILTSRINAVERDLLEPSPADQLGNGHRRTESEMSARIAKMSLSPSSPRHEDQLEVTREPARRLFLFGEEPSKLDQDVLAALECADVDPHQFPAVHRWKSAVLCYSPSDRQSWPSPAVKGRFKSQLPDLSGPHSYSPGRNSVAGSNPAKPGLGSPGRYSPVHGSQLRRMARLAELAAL", "UniProt Q86TG7": "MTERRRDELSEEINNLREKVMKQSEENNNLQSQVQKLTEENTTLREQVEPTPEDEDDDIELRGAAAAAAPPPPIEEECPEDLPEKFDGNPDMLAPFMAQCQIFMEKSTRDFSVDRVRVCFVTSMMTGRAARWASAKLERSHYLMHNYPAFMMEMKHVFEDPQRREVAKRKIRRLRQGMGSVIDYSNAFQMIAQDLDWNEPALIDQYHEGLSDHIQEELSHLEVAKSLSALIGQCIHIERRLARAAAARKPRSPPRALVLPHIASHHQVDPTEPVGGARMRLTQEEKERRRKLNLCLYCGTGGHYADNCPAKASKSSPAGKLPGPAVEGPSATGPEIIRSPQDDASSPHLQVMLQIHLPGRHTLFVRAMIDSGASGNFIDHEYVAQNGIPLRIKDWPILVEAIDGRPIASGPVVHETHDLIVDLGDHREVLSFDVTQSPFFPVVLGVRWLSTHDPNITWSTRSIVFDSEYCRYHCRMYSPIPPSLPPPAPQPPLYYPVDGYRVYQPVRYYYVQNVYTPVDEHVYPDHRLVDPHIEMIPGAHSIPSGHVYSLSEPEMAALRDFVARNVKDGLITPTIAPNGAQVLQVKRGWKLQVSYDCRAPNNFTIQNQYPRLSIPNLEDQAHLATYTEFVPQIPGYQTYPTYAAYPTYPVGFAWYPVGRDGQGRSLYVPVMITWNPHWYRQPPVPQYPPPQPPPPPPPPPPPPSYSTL", "UniProt Q86UD0": "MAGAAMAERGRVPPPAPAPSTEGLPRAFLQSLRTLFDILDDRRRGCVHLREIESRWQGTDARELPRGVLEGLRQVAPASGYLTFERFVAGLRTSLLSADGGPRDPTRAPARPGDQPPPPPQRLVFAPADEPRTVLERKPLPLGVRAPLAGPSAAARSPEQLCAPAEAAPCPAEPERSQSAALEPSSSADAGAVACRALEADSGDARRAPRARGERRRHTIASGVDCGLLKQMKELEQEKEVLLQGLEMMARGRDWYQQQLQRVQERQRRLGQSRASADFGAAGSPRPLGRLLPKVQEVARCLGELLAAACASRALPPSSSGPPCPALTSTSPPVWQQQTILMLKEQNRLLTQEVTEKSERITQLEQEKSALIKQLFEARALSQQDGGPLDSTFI", "UniProt Q7Z309": "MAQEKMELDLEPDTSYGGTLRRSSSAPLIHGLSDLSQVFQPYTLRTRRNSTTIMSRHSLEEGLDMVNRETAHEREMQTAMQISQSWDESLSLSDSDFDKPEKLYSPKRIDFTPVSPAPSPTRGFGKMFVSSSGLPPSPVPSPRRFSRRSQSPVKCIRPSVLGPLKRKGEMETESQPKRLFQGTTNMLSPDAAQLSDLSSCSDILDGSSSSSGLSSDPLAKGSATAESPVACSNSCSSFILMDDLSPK", "UniProt Q7L576": "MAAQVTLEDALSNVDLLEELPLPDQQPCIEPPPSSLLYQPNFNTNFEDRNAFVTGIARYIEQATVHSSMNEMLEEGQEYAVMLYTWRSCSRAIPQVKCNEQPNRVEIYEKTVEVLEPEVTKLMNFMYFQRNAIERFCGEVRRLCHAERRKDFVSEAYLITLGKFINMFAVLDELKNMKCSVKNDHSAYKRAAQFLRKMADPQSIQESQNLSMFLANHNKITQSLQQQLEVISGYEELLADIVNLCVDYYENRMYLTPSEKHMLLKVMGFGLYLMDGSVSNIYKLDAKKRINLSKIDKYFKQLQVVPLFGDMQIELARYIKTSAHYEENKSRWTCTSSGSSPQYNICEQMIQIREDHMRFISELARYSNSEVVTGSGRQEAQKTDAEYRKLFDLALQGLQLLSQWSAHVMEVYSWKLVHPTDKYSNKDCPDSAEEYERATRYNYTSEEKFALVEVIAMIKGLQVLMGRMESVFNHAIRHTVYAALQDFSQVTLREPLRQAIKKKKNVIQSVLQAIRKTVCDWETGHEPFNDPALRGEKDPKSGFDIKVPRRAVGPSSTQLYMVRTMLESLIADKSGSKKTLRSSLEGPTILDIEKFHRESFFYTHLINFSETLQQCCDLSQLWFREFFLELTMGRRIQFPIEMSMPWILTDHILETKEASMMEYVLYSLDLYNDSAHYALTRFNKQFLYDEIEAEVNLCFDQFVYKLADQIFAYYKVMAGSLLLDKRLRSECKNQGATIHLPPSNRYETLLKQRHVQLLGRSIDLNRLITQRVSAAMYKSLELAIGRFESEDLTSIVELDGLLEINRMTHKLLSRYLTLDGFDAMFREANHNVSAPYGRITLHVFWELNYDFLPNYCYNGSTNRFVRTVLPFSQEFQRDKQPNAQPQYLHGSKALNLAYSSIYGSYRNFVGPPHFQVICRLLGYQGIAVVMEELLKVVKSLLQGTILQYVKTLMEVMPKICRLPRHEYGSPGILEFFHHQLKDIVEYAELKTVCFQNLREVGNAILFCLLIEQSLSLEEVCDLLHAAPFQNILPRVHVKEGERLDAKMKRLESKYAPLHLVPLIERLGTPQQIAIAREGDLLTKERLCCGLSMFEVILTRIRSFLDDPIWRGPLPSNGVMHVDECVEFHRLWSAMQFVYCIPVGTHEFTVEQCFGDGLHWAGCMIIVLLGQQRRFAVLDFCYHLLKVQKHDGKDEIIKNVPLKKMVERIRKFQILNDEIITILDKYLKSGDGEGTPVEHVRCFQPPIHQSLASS", "UniProt Q86W56": "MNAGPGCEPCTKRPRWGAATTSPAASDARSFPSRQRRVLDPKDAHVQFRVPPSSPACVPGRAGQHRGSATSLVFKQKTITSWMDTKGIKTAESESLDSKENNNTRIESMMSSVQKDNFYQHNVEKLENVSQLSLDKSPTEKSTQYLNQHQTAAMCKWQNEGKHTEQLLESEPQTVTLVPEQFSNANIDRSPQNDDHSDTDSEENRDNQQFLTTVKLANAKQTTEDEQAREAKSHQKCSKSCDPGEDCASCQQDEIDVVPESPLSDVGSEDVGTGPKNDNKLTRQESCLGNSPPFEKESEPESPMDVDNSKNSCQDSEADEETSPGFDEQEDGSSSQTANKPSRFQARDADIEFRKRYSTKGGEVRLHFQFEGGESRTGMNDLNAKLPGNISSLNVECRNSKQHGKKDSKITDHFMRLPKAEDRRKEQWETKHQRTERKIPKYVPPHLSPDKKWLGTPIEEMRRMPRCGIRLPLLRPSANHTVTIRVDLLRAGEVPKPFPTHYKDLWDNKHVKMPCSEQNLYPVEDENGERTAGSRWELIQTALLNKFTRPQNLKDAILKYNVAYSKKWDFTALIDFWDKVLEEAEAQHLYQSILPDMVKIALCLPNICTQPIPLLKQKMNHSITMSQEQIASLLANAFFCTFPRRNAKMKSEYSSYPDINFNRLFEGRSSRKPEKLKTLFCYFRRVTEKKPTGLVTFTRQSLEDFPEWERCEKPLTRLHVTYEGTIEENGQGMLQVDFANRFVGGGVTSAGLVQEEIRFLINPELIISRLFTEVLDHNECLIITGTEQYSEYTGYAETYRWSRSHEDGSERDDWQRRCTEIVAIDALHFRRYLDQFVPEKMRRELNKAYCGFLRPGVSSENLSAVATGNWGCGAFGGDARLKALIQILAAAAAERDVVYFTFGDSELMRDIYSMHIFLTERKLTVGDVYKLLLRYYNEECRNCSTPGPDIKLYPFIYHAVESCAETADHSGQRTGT", "UniProt Q8IU81": "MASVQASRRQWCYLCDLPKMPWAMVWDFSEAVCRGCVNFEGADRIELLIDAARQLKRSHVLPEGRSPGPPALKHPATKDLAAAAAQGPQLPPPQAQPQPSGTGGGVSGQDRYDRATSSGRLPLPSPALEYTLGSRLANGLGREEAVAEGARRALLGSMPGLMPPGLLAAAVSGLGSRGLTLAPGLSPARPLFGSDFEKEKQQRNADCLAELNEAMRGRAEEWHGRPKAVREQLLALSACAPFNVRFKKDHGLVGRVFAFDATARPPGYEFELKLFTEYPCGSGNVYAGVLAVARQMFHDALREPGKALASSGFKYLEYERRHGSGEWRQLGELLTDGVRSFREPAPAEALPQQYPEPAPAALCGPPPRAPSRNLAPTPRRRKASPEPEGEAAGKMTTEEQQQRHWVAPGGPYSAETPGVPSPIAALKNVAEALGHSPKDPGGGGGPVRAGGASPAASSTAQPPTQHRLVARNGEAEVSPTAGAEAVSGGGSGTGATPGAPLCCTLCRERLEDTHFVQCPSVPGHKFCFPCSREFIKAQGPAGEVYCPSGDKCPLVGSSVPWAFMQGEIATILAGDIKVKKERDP", "UniProt Q8IXI1, whole entry, looked up": "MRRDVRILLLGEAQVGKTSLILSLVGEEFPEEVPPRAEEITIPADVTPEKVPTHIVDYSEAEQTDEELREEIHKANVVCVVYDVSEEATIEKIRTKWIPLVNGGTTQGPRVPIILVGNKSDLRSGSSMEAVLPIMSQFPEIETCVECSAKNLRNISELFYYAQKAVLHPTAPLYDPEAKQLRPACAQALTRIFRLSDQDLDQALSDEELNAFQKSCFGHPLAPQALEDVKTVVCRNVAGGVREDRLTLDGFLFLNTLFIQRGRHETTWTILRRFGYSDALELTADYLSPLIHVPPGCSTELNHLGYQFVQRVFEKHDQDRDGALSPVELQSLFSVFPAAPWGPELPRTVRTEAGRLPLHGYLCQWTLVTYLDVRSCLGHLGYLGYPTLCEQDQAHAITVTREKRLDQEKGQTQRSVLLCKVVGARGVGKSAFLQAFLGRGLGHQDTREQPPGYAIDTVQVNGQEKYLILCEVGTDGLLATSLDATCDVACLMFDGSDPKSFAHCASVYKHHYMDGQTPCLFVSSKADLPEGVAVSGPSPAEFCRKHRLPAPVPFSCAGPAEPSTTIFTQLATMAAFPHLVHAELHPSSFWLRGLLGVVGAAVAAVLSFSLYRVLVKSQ", "UniProt Q7RTV0, whole entry, looked up": "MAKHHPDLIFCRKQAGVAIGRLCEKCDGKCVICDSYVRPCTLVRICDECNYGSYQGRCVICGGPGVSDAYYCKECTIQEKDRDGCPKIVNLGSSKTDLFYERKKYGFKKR", "UniProt Q7Z4Q2": "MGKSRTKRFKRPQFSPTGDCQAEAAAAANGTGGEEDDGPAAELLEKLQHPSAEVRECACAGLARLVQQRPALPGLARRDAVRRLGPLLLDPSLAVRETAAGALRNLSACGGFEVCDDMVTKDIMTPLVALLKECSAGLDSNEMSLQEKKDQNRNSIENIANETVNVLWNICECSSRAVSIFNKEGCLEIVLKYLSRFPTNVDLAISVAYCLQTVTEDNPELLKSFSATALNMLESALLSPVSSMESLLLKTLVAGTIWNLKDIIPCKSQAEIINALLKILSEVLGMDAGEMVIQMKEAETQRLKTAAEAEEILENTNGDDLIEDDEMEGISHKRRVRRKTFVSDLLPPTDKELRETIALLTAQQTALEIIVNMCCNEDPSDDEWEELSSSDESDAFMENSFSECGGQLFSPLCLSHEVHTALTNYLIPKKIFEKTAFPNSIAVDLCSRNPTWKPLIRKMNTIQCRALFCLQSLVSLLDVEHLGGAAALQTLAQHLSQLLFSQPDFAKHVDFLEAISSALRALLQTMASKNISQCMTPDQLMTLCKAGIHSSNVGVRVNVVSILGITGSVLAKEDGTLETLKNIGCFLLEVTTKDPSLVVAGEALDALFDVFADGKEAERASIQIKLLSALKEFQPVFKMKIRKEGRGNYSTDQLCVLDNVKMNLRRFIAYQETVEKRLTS"}, "source": "the supplement of paper PMC11006884", "note": "The list shows a part of the results, in another mix than the full data."}
{"compound": "COC(=O)C#Cc1ccccc1 [methyl 3-phenylpropiolate]", "assay": "log2 ratio of iodoacetamide-alkyne labeling of the cysteine site, DMSO over compound (competition); higher = stronger covalent engagement of the cysteine by the compound, active = 1 or more", "conditions": "500 µM; treatment time 1 h; system: HEK293T cell lysate", "procedure,_shortened": "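Three replicates, each with duplicate channels, were prepared from HEK293T lysate (2 mg/mL) treated with vehicle or electrophile at 500 µM for 1 h at ambient temperature. Iodoacetamide alkyne was then applied for 1 h, and samples were clicked to sCIP-TMT reagents, pooled, trypsin-digested overnight at 37 °C, enriched on streptavidin, acid-eluted and analysed on Orbitrap Eclipse LC-MS/MS with FAIMS, with FragPipe quantification. The log2 competition ratio per cysteine is the mean control-channel divided by the mean compound-channel reporter intensity. Cysteines quantified in only one replicate were left out.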"}
{"target": "ANKLE2 C350 (UniProt Q86XL3)", "log2 ratio of iodoacetamide-alkyne labeling": "inactive: 0.000798"}
{"target": "RPAIN C175 (UniProt Q86UA6)", "log2 ratio of iodoacetamide-alkyne labeling": "inactive: -0.0658"}
{"target": "PEG10 C78 (UniProt Q86TG7)", "log2 ratio of iodoacetamide-alkyne labeling": "inactive: 0.121"}
{"target": "UniProt Q86Y56_C773", "log2 ratio of iodoacetamide-alkyne labeling": "inactive: -0.0321"}
{"target": "DHX30 C286 (UniProt Q7L2E3)", "log2 ratio of iodoacetamide-alkyne labeling": "inactive: 0.0941"}
{"target": "Q8F0_C443", "log2 ratio of iodoacetamide-alkyne labeling": "inactive: 0.302"}
{"target": "CRLF3 C95 (UniProt Q8IUI8)", "log2 ratio of iodoacetamide-alkyne labeling": "inactive: 0.136"}
{"target": "TRMT2A C463 (UniProt Q8IZ69)", "log2 ratio of iodoacetamide-alkyne labeling": "active: 1.1"}
{"target": "UniProt Q86UD0_C195", "log2 ratio of iodoacetamide-alkyne labeling": "inactive: 0.728"}
{"target": "UBR2 C1619 (UniProt Q8IWV8)", "log2 ratio of iodoacetamide-alkyne labeling": "inactive: 0.0476"}
{"target": "DCP2 C158 (UniProt Q8IU60)", "log2 ratio of iodoacetamide-alkyne labeling": "inactive: 0.0851"}
{"target": "CCAR1 C579 (UniProt Q8IX12)", "log2 ratio of iodoacetamide-alkyne labeling": "inactive: 0.0854"}
{"target": "ELMOD2 C285 (UniProt Q8IZ81)", "log2 ratio of iodoacetamide-alkyne labeling": "inactive: -0.137"}
{"target": "FAM122B C155 (UniProt Q7Z309)", "log2 ratio of iodoacetamide-alkyne labeling": "active: 1.05"}
{"target": "CYFIP1 C98 (UniProt Q7L576)", "log2 ratio of iodoacetamide-alkyne labeling": "active: 1.78"}
{"target": "IRF2BP2 C16 (UniProt Q7Z5L9)", "log2 ratio of iodoacetamide-alkyne labeling": "inactive: 0.113"}
{"target": "PBRM1 C50 (UniProt Q86U86)", "log2 ratio of iodoacetamide-alkyne labeling": "inactive: -0.144"}
{"target": "DHX30 C346 (UniProt Q7L2E3)", "log2 ratio of iodoacetamide-alkyne labeling": "inactive: 0.258"}
{"target": "HUWE1 C3259 (UniProt Q7Z6Z7)", "log2 ratio of iodoacetamide-alkyne labeling": "inactive: 0.586"}
{"target": "UniProt Q7Z5K2_C160", "log2 ratio of iodoacetamide-alkyne labeling": "inactive: 0.514"}
{"target": "UniProt Q7Z695_C624", "log2 ratio of iodoacetamide-alkyne labeling": "inactive: 0.296"}
{"target": "KTN1 C736 (UniProt Q86UP2)", "log2 ratio of iodoacetamide-alkyne labeling": "inactive: 0.217"}
{"target": "PHF6 C128 (UniProt Q8IWS0)", "log2 ratio of iodoacetamide-alkyne labeling": "inactive: -0.0348"}
{"target": "PARG C603 (UniProt Q86W56)", "log2 ratio of iodoacetamide-alkyne labeling": "inactive: -0.000887"}
{"target": "IRF2BP1 C239 (UniProt Q8IU81)", "log2 ratio of iodoacetamide-alkyne labeling": "inactive: 0.125"}
{"target": "RHOT2 C216 (UniProt Q8IXI1)", "log2 ratio of iodoacetamide-alkyne labeling": "inactive: 0.167"}
{"target": "HUWE1 C1628 (UniProt Q7Z6Z7)", "log2 ratio of iodoacetamide-alkyne labeling": "inactive: 0.213"}
{"target": "UniProt Q7RTV0_C46", "log2 ratio of iodoacetamide-alkyne labeling": "inactive: 0.211"}
{"target": "ZFYVE16 C292 (UniProt Q7Z3T8)", "log2 ratio of iodoacetamide-alkyne labeling": "inactive: 0.185"}
{"target": "GCC2 C297 (UniProt Q8IWJ2)", "log2 ratio of iodoacetamide-alkyne labeling": "inactive: 0.466"}
{"target": "UniProt Q86Y56_C420", "log2 ratio of iodoacetamide-alkyne labeling": "inactive: 0.492"}
{"target": "HEATR3 C655 (UniProt Q7Z4Q2)", "log2 ratio of iodoacetamide-alkyne labeling": "inactive: 0.102"}
{"target": "DDX42 C281 (UniProt Q86XP3)", "log2 ratio of iodoacetamide-alkyne labeling": "inactive: 0.45"}
{"target": "UniProt Q7Z2Z2_C599", "log2 ratio of iodoacetamide-alkyne labeling": "inactive: 0.247"}
{"target": "UniProt Q86YR5_C515", "log2 ratio of iodoacetamide-alkyne labeling": "active: 1.7"}
{"target": "MEPCE C244 (UniProt Q7L2J0)", "log2 ratio of iodoacetamide-alkyne labeling": "inactive: 0.206"}
{"target": "CYFIP1 C1241 (UniProt Q7L576)", "log2 ratio of iodoacetamide-alkyne labeling": "inactive: 0.137"}
